Assay results from US20060100168A1, “Method of treating cancer using adenosine and its analogs” (The Trustee of Boston University, priority 2002, published 2006).
For at least one compound, name, drawing or mass did not settle the structure. Some results were stated once for a whole list of compounds, not compound by compound. Some ranges recur; such a range may be that of the whole group of compounds.

Experiments:
MCF-7 cells [1] = experiment: Anchorage-dependent growth assay (viable cell count, Trypan Blue); format: cell-based, human; details: growth and ERα levels
Procedure: Anchorage-dependent growth assay: Cells were plated into 6-well plates and grown overnight before treatments. The seeding concentration of MCF-7 cells was 2×10^5/well, which was determined during preliminary experiments as not allowing the cells to reach confluency within 3 days. Cells were treated either with vehicle or ligands, as indicated. Cells were detached by incubation with trypsin (Invitrogen, Carlsbad, Calif.) and counted with a hemacytometer before or after treatment.

MCF-7 cells [2] = experiment: Cell cycle analysis by flow cytometry; format: cell-based, human; details: 100 μM, except adenosine (500 μM) and inosine (1 mM)
Procedure: Flow Cytometry and Apoptosis Analysis: Cells were detached from tissue culture plates by trypsin treatment. Cells were collected by centrifugation at 1200 g for 5 minutes and washed once with PBS. Staining of cells with propidium iodide and analysis on a flow cytometer (FACScan, Becton Dickinson, Research Triangle Park, N.C.) was performed as described before (42). Data were analyzed with CellQuest software (Becton Dickinson, Research Triangle Park, N.C.). The percentage of cells appearing with a ploidy level smaller than a diploid content was calculated as an estimate of cells undergoing apoptosis.

Row | Structure (SMILES) | Concentration range in which effective (MCF-7 cells [1]) [µM] | Cell Cycle Arrest (position of arrest) (MCF-7 cells [2])
1 | Nc1nc(Cl)nc2c1ncn2[C@@H]1O[C@H](CO)[C@@H](O)[C@H]1O [CADO, 2-chloro-adenosine] | 10 to 100 | 
2 | Nc1ncnc2c1ncn2[C@@H]1O[C@H](CO)C[C@H]1O [Cordycepin, 3′-deoxyadenosine] | 10 to 100 | 
3 | CNC(=O)[C@H]1O[C@@H](n2cnc3c(NCc4cccc(I)c4)ncnc32)[C@H](O)[C@@H]1O [IB-MECA, N^6-(3-iodobenzyl)adenosine-5′-N-methyluronamide] | 10 to 100 | G1/S
